Experimental data as given in PMC7205318.
No constants are given. Whether binding was seen depends on the method and setting. Binding seen in cells or lysates may run through a third protein. Some results given as binding are weak or reduced against the parent protein; the word gives no strength. For some of these results: Where a sequence is shown, tags or fusion partners need not be part of it.

By UniProt entry, the sequences of proteins in these tests, tags left out. Where a name states a change or a piece, a line headed by the entry shows the natural chain unless it says otherwise. Chains listed by the source or under a name are the forms on record and can include a tag or linker.
UniProt Q9VYG2: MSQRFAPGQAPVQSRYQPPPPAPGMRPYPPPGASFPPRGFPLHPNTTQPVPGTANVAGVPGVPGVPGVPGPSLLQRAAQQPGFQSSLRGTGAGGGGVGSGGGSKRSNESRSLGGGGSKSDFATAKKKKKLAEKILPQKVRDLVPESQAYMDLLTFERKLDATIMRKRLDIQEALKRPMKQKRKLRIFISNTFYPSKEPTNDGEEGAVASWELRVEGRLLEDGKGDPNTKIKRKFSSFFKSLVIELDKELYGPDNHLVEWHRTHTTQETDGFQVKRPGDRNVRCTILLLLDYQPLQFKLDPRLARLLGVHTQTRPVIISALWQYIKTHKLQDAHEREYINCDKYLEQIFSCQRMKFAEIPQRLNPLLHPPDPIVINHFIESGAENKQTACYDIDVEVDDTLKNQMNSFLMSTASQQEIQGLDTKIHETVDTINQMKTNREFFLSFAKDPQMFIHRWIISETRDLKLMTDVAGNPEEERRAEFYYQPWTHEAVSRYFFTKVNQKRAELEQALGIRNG
UniProt P51592: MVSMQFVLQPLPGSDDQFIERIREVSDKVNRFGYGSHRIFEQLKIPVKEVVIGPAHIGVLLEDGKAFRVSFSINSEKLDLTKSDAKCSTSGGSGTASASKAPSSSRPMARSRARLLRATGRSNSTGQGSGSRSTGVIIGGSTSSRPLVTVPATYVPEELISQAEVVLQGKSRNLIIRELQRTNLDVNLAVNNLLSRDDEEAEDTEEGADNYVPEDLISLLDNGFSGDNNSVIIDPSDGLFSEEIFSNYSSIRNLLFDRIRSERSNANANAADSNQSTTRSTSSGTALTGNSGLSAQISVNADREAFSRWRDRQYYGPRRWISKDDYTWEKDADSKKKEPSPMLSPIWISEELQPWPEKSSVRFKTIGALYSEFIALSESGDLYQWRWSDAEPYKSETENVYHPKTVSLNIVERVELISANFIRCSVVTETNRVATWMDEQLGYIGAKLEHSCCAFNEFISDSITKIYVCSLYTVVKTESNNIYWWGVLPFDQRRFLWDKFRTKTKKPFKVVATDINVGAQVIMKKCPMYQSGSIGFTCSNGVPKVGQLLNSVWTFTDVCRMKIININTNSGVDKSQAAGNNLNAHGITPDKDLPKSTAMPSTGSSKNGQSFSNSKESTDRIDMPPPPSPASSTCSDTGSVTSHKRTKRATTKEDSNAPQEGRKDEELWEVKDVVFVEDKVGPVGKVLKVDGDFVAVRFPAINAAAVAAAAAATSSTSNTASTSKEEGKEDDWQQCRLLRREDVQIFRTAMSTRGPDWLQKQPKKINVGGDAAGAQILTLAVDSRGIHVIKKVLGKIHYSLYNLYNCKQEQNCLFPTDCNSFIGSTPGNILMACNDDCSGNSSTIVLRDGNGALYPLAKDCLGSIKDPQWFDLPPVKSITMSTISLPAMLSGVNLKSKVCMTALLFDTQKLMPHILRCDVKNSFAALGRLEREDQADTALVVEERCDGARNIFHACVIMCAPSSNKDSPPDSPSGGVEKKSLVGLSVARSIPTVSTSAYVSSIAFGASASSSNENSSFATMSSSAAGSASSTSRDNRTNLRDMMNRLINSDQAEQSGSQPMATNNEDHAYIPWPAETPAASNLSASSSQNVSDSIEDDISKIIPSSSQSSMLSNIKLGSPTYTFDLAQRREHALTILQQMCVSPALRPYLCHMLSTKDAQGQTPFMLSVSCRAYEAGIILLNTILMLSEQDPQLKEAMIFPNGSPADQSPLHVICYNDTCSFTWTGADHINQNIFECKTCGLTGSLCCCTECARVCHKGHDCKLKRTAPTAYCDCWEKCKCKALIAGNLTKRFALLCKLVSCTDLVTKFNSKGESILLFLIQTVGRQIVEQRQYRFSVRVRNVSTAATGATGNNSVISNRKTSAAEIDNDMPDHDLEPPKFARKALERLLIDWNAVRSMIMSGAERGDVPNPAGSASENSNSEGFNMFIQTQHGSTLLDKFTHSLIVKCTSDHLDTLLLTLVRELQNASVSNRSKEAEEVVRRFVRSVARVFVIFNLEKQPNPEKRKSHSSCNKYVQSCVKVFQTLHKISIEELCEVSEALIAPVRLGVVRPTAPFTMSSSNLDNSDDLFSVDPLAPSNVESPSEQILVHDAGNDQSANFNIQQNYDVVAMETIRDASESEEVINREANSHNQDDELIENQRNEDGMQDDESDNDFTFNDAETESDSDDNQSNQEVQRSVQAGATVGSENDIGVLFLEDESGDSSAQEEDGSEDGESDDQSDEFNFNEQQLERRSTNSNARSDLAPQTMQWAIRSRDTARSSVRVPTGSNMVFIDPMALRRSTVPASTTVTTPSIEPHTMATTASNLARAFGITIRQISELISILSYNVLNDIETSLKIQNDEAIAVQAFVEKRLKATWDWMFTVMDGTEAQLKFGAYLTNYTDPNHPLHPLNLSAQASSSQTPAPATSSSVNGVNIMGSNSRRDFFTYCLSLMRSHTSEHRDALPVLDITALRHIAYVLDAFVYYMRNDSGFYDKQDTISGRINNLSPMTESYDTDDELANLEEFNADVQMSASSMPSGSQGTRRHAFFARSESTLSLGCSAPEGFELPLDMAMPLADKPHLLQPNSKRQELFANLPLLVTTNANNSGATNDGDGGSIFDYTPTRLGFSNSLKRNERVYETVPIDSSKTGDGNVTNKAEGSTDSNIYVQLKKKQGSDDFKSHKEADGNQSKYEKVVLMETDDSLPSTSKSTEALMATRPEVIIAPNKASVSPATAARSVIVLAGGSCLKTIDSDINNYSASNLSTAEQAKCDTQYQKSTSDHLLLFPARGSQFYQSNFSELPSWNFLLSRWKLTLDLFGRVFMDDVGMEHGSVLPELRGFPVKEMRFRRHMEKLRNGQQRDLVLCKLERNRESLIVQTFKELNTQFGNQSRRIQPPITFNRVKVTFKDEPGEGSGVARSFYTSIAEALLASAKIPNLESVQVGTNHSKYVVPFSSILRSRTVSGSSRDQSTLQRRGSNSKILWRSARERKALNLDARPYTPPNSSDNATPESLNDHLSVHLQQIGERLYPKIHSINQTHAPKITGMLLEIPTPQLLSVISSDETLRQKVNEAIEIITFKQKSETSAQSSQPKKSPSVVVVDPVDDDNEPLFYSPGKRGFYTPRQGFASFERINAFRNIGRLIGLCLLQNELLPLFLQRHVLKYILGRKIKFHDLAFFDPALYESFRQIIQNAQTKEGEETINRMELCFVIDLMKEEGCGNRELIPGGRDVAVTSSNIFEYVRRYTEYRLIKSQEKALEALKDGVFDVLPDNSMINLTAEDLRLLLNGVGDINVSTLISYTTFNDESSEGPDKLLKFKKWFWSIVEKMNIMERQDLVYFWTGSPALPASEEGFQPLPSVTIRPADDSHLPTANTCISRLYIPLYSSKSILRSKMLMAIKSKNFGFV
V5-tagged Hyd-CS (Hyd-CS-V5) (P51592, form named): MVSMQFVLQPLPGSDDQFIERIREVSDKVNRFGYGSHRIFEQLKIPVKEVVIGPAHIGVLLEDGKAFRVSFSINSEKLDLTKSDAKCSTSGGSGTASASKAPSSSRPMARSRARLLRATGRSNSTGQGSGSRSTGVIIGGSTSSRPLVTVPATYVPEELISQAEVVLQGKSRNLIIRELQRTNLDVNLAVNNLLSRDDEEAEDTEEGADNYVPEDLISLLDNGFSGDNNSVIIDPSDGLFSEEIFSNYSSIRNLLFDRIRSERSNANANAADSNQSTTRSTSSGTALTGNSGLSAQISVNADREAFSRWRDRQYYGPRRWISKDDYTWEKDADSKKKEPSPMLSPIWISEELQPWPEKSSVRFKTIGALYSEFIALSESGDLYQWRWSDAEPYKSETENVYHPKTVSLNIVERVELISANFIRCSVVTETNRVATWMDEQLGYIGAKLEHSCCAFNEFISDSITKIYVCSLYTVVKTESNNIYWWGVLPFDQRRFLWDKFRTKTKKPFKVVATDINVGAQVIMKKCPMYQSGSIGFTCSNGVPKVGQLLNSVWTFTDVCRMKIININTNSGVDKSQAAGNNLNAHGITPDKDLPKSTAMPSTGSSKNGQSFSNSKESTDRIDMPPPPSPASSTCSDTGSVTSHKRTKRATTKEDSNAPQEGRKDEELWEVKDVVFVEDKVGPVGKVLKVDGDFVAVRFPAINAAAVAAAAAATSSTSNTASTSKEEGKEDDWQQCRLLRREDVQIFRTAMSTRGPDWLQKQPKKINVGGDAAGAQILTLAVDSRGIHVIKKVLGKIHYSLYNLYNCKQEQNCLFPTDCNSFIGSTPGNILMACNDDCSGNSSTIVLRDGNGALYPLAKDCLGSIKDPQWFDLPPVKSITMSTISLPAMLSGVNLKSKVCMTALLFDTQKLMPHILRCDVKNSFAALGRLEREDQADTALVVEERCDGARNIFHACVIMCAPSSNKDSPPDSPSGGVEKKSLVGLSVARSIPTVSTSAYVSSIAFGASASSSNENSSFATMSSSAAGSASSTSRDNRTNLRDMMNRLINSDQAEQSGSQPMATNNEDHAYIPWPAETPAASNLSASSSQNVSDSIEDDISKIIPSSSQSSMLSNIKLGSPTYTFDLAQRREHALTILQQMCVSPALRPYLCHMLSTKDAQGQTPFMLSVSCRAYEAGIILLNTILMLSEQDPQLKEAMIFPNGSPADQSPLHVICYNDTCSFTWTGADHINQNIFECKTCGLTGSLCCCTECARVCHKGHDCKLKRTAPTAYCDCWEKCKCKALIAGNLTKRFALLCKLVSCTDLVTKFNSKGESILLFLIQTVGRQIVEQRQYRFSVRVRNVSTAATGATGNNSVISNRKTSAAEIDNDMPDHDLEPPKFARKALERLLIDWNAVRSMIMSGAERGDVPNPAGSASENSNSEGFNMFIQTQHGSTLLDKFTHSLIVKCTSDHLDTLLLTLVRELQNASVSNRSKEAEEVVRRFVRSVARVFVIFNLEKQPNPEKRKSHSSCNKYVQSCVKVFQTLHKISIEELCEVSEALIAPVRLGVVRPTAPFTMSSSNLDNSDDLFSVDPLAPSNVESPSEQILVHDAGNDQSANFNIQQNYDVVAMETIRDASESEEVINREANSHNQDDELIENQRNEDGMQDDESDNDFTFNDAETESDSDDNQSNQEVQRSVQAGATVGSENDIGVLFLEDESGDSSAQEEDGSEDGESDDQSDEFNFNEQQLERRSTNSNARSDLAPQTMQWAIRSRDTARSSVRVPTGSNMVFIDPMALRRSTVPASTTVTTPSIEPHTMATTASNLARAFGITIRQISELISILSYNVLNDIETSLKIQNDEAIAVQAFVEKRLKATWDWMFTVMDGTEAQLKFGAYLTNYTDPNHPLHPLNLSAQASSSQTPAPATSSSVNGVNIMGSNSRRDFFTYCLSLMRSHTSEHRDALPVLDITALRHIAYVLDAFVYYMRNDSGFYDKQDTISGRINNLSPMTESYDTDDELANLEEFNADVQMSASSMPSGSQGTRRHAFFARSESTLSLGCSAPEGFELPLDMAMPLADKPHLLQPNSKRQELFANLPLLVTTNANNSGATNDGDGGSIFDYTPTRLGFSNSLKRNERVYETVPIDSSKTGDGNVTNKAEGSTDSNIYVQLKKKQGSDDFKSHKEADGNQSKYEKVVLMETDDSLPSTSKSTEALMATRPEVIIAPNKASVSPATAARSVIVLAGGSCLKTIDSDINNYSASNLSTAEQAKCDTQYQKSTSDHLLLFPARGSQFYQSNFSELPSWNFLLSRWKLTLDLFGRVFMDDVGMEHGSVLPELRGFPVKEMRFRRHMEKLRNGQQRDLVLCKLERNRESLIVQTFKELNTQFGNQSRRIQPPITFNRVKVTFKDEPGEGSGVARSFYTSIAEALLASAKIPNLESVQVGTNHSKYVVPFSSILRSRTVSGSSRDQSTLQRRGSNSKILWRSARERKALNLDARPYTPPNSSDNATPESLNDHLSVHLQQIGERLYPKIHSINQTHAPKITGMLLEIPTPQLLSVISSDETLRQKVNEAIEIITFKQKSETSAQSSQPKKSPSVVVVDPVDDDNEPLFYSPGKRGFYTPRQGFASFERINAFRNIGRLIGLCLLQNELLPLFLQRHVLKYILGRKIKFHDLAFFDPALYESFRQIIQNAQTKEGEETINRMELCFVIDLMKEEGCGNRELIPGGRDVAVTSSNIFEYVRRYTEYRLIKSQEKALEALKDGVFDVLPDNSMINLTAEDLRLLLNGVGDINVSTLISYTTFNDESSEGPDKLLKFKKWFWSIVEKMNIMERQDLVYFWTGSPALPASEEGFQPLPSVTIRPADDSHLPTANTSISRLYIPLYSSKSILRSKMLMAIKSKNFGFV

T1: Akirin-V5 (Drosophila melanogaster) (UniProt Q9VS59)
T1 sequence: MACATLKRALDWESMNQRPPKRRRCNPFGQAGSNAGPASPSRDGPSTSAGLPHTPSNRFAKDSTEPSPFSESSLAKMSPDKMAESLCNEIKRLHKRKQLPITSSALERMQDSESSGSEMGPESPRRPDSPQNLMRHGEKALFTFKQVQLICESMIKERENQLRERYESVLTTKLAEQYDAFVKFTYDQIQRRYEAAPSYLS

T2: Akirin (Drosophila melanogaster) (UniProt Q9VS59)
T2 sequence: T1 sequence

B1: Death-associated inhibitor of apoptosis 2 (Diap2) (enzyme, UniProt Q24307 1-498)
chain: MTELGMELESVRLATFGEWPLNAPVSAEDLVANGFFATGNWLEAECHFCHVRIDRWEYGDQVAERHRRSSPICSMVLAPNHCGNVPRSQESDNEGNSVVDSPESCSCPDLLLEANRLVTFKDWPNPNITPQALAKAGFYYLNRLDHVKCVWCNGVIAKWEKNDNAFEEHKRFFPQCPRVQMGPLIEFATGKNLDELGIQPTTLPLRPKYACVDARLRTFTDWPISNIQPASALAQAGLYYQKIGDQVRCFHCNIGLRSWQKEDEPWFEHAKWSPKCQFVLLAKGPAYVSEVLATTAANASSQPATAPAPTLQADVLMDEAPAKEALALGIDGGVVRNAIQRKLLSSGCAFSTLDELLHDIFDDAGAGAALEVREPPEPSAPFIEPCQATTSKAASVPIPVADSIPAKPQAAEAVANISKITDEIQKMSVATPNGNLSLEEENRQLKDARLCKVCLDEEVGVVFLPCGHLATCNQCAPSVANCPMCRADIKGFVRTFLS

Experiments:
[1] = molecular target: T1, Akirin-V5 (Drosophila melanogaster); assay: co-IP; S2 cells transiently transfected with Akirin-V5 and Rel-HA or Bap60-HA plasmids and dsRNA targeting GFP or Hyd; lysate immunoprecipitated with anti-V5 coupled agarose beads; Western blot with anti-HA or anti-V5
[2] = molecular target: T2, Akirin (Drosophila melanogaster); assay: co-IP; S2 cells transiently transfected with Akirin, Gal4, Hyd-V5 and/or Hyd-CS-V5 plasmids; lysate (Pierce IP Lysis Buffer) immunoprecipitated with anti-Akirin overnight at 4°C; Western blot with anti-V5 or anti-Akirin
[3] = molecular target: T2, Akirin (Drosophila melanogaster); assay: co-IP; interaction assay between Diap2 and Akirin, a control to the Hyd-Akirin co-immunoprecipitation; details only in S3 Fig

| Molecule | binding [2] | also measured |
| --- | --- | --- |
| Bap60-HA (from UniProt Q9VYG2 1-515) |  | binding [1]: binds |
| V5-tagged Hyd-CS (Hyd-CS-V5) (from UniProt P51592 1-2885) (enzyme) | no binding |  |
| V5-tagged Hyperplastic discs (Hyd-V5) (from UniProt P51592 1-2885) (enzyme) | binds |  |
| B1 |  | binding [3]: no binding |
